# Values from PubChem BioAssay AID652243 (Drosophila RNAi Screening Center, 2013).
# Assay: 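Knock-downs that decrease or increase androgen receptor reporter signal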 (primary screen)
# Cell system: Drosophila S2R+ cells
# Reagents: long dsRNA against Drosophila genes
# Duration: 72 h (48 h, then 24 h hormone)
# Challenge: synthetic androgen R1881 at 10 nM for 24 h
# Read-out: 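Per-well raw luminescence of the androgen-driven firefly reporter and of the Renilla control, two replicates each, without normalisation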
# Reading the numbers: firefly reporter light: higher = more light from androgen-responsive reporter; Renilla control light: higher = more constitutive control signal (cell number, transfection)
# Hit rule: 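Across duplicate plates, a knock-down whose log firefly/Renilla ratio shifted a set fold down or up from the GFP/LacZ control mean was a hit; the downward cut appears as both 1.5 and 3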
# Meaning of the calls: active = hit: reporter lowered or raised; inactive = no hit
# In all, the deposit lists about 24,000 reagents; shown is an unselected part of those with a known target gene and a result. In the full data, 246 (1%) are marked active. 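Plates not normalised; calls are printed but the firefly/Renilla ratio behind them is not deposited; fold cut for lowering reported inconsistently.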 Raw values are not corrected between plates. A plus sign joins genes that one reagent is predicted to hit. Not given: the amount of reagent.
target gene,dsRNA,"firefly reporter light, replicate 1","firefly reporter light, replicate 2","Renilla control light, replicate 1","Renilla control light, replicate 2",Outcome
scramb1 (scramblase 1),DRSC09724,2.39e5,2.87e5,2.94e6,3.32e6,inactive
scramb1 (scramblase 1),DRSC10667,3.93e5,3.33e5,3.90e6,3.51e6,inactive
scramb1 (scramblase 1),DRSC10668,2.28e5,2.29e5,2.43e6,2.58e6,inactive
nolo (no long nerve cord),DRSC03705,1.23e6,1.14e6,2.85e6,2.25e6,inactive
nolo (no long nerve cord),DRSC03719,2.76e5,2.33e5,2.16e6,1.50e6,inactive
nolo (no long nerve cord),DRSC03720,2.25e5,2.90e5,1.63e6,1.68e6,inactive
CG16734,DRSC15143,1.75e5,2.08e5,2.79e6,4.02e6,inactive
Ids (Iduronate 2-sulfatase),DRSC08222,1.07e5,79236,8.49e5,1.10e6,inactive
His3.3A (Histone H3.3A),DRSC03343,1.67e5,1.36e5,22310,34862,inactive
His3.3A (Histone H3.3A),DRSC25053,5.99e5,4.01e5,2.38e5,2.80e5,inactive
NetA (Netrin-A),DRSC20261,3.68e5,4.70e5,2.76e6,2.69e6,inactive
CG8003,DRSC10946,1.03e6,8.48e5,1.54e6,1.39e6,inactive
CG11999,DRSC12185,1.20e5,91312,2.17e6,2.08e6,inactive
CG33654,DRSC37818,9.40e5,7.02e5,2.19e6,1.86e6,inactive
ng2 + ng1,DRSC23988,9.42e5,6.20e5,5.53e5,5.35e5,inactive
ac (achaete),DRSC18734,15832,11663,6.26e5,5.11e5,inactive
ac (achaete),DRSC25102,1.88e6,1.86e6,1.77e6,1.32e6,inactive
hng2 (hinge2),DRSC16412,82315,1.02e5,2.04e6,2.16e6,inactive
colt (congested-like trachea),DRSC00808,9.03e5,7.81e5,2.91e6,1.93e6,inactive
colt (congested-like trachea),DRSC29025,5.20e5,4.65e5,1.25e6,1.08e6,inactive
Samuel,DRSC21731,6.46e5,6.11e5,1.79e6,2.02e6,inactive
Samuel,DRSC23114,1.19e6,1.43e6,1.36e6,1.71e6,inactive
eIF2alpha (eukaryotic translation initiation factor 2 subunit alpha),DRSC20327,1.01e5,1.96e5,4.15e5,5.53e5,inactive
"SmydA-2 (SET and MYND domain containing, arthropod-specific, member 2)",DRSC10296,2.12e5,1.70e5,2.23e6,1.69e6,inactive
CG7368,DRSC10826,1.25e5,1.17e5,1.85e6,1.26e6,inactive
CG7368,DRSC22821,1.38e5,1.53e5,8.11e5,1.02e6,inactive
CG7368,DRSC29098,4.79e5,5.43e5,1.23e6,1.19e6,inactive
ZC3H3,DRSC10696,22824,21956,2.87e5,1.95e5,inactive
ZC3H3,DRSC28763,1.33e5,96455,4.80e5,4.58e5,inactive
ZC3H3,DRSC39048,72002,92672,3.60e5,3.47e5,inactive
Cht2 (Chitinase 2),DRSC08650,1.20e6,2.62e5,1.45e6,6.91e5,inactive
Cht2 (Chitinase 2),DRSC24801,7.15e5,5.44e5,6.92e5,4.24e5,inactive
GstD11 (Glutathione S transferase D11),DRSC15251,1.33e5,1.51e5,2.92e6,2.46e6,inactive
GstD11 (Glutathione S transferase D11),DRSC26490,2.01e5,1.05e5,3.02e5,2.97e5,inactive
CR31054 (pseudo),DRSC22134,5.52e5,5.46e5,2.50e6,2.36e6,inactive
shd (shade),DRSC11129,1.97e5,1.34e5,1.69e6,1.70e6,inactive
gbb (glass bottom boat),DRSC04687,2.78e5,3.53e5,1.72e6,1.47e6,inactive
gbb (glass bottom boat),DRSC25717,7.58e5,5.19e5,5.78e5,4.66e5,inactive
CG11598,DRSC14331,2.02e5,1.58e5,2.81e6,3.11e6,inactive
Sptz (Spastizin),DRSC15758,2.17e5,2.50e5,2.32e6,1.62e6,inactive
Sptz (Spastizin),DRSC27382,5.26e5,6.25e5,9.53e5,9.65e5,inactive
CG6356,DRSC16026,1.45e5,1.88e5,2.29e6,2.17e6,inactive
Tfb1 (Transcription factor B1),DRSC07082,1.70e6,5.27e5,1.64e6,6.80e5,inactive
Vdup1 (Vitamin D[[3]] up-regulated protein 1),DRSC08586,1.02e5,1.35e5,1.43e6,1.85e6,inactive
CG4911,DRSC10456,6.07e5,2.91e5,4.76e5,2.60e5,inactive
tamo,DRSC04446,2.47e5,2.39e5,8.57e5,8.26e5,inactive
tamo,DRSC24895,3.07e5,2.61e5,9.25e5,5.86e5,inactive
CG7848,DRSC07050,73517,38636,1.05e6,1.05e6,inactive
fidipidine,DRSC07618,1.10e5,1.34e5,1.90e6,1.90e6,inactive
fidipidine,DRSC25394,5.38e5,3.78e5,6.06e5,4.76e5,inactive
CG40936 (retired record),DRSC38673,6.18e5,6.66e5,1.15e6,1.90e6,inactive
CG10947,DRSC02111,1.21e6,9.81e5,1.55e6,1.42e6,inactive
CG10947,DRSC27404,2.41e5,2.56e5,6.82e5,7.63e5,inactive
mRpS17 (mitochondrial ribosomal protein S17),DRSC04463,2.65e5,3.14e5,1.37e6,1.42e6,inactive
Spn42De (Serpin 42De),DRSC05011,1.28e5,1.13e5,1.29e6,1.10e6,inactive
Spn42De (Serpin 42De),DRSC28039,5.16e5,4.02e5,1.78e6,1.67e6,inactive
dachs,DRSC01026,4.45e5,8.97e5,5.96e5,1.98e6,inactive
dachs,DRSC02072,5.53e5,8.42e5,1.83e6,1.77e6,inactive
dachs,DRSC02191,2.61e5,1.57e5,2.00e6,2.06e6,inactive
dachs,DRSC26121,2.96e5,2.80e5,8.09e5,8.40e5,inactive
dachs,DRSC28403,3.36e5,5.15e5,6.25e5,1.00e6,inactive

4 entries already listed, ordered by “Renilla control light, replicate 1”, high to low.
target gene,dsRNA,"firefly reporter light, replicate 1","firefly reporter light, replicate 2","Renilla control light, replicate 1","Renilla control light, replicate 2",Outcome
CG11598,DRSC14331,2.02e5,1.58e5,2.81e6,3.11e6,inactive
gbb (glass bottom boat),DRSC04687,2.78e5,3.53e5,1.72e6,1.47e6,inactive
shd (shade),DRSC11129,1.97e5,1.34e5,1.69e6,1.70e6,inactive
gbb (glass bottom boat),DRSC25717,7.58e5,5.19e5,5.78e5,4.66e5,inactive
